Test results taken from PubChem BioAssay AID1487 (National Center for Advancing Translational Sciences (NCATS), 2009).
The other results are listed elsewhere or left out. Shown are side measurements of this screen, not its main read-out; they come without a call. The list favours compounds with an active or inconclusive main result. Potencies come from curve fits of mixed quality, noted in brackets.

Assay: qHTS Assay for Modulators of Lamin A Splicing
Settings: HeLa LMNA splicing GFP/RFP minigene ratio, 48 h
In short: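 S3 HeLa cells stably expressing lamin A-EGFP splicing minigene plus DsRed2, 600 cells/well, 48 h compound exposure at 37C. Laser-scanning cytometry; analysed as GFP (500-530 nm)/RFP (575-640 nm) total intensity ratio; 0.5% DMSO vehicle.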

[1] = measured here: RFP viability control channel
[2] = measured here: GFP splicing reporter channel

SMILES | AC50 [1] | AC50 [2]
COc1ccc(N=C2SC(C(=O)Nc3ccc4c(c3)OCO4)CC(=O)N2C)cc1 (stereo not drawn) | 35.5 µM [rising, single point] | –
Cc1ccc(Cn2nnnc2CN2CCC(NC(=O)c3ccc(Br)cc3)CC2)cc1 | 22.4 µM [rising, single point] | –
C/C(=N\OCC(=O)Nn1c(C)nc2ccccc2c1=O)c1ccccc1 | – | 11.2 µM [rising, partial curve, poor fit]
Clc1ccc(-n2ncc3c(NCc4ccco4)ncnc32)cc1 | 22.4 µM [rising, single point] | 15.8 µM [rising, single point]
COc1cc(C(=O)Nc2ccc(N(C)C)cc2)c([N+](=O)[O-])cc1OC | 35.5 µM [rising, single point] | –
Cc1ccc(NC(=O)CN2C(=O)N/C(=C\c3cccnc3)C2=O)cc1 | – | 5.62 µM [falling, single point]
COc1ccc(Cc2nnc(N/N=C/c3ccc(O)cc3)[nH]c2=O)cc1OC | 12.6 µM [rising, partial curve] | –
CCC(=O)N1CCc2cc(S(=O)(=O)NCCC(=O)NC3CCCc4ccccc43)ccc21 (stereo not drawn) | 11.2 µM [rising, partial curve, poor fit] | 10 µM [rising, partial curve]
COc1ccc(C(=O)OCC(=O)Nc2ccc(Cl)c(C(F)(F)F)c2)c(OC)c1OC | 35.5 µM [rising, single point] | 17.8 µM [rising, single point]
COC(=O)C(N)Cc1ccc(Cl)cc1 (stereo not drawn) | – | 35.5 µM [falling, single point]
Cc1ccc(CNCc2cccnc2)s1 | 0.0251 µM [falling, full curve, poor fit] | 0.00447 µM [falling, full curve, poor fit]
CCOC(=O)/C=C(\C)Sc1cc(=O)oc2ccccc12 | 35.5 µM [falling, single point] | 12.6 µM [falling, partial curve]
O=C(CSc1nc(=O)n(Cc2ccco2)c2c1CCC2)NCc1ccccc1Cl | 10 µM [rising, partial curve, poor fit] | –
CC(C)(C)c1cc(C(=O)N/N=C/c2ccccc2O)n(-c2ccccc2)n1 | 7.94 µM [rising, partial curve] | 3.16 µM [rising, full curve]
Cc1cc(N2CCCCC2)nc(SCc2ccc(C#N)cc2)n1 | 11.2 µM [rising, partial curve] | 5.01 µM [rising, partial curve]
O=C(C1CCCN(S(=O)(=O)c2ccc(Br)s2)C1)N1CCCCCC1 (stereo not drawn) | 12.6 µM [rising, partial curve] | 3.16 µM [rising, full curve, poor fit]
Cc1nc2ccn(Cc3cccnc3)c(=O)c2cc1C(=O)NCc1ccc(Cl)cc1 | – | 2.82 µM [rising, full curve, poor fit]
COc1ccc(C(=O)N/N=C/c2ccc(OC)c(OS(=O)(=O)c3ccccc3)c2)cc1 | 3.55 µM [rising, partial curve] | –

SMILES | AC50 [1] | AC50 [2]
O=C(N/N=C/c1ccc[nH]1)c1cccnc1 | 0.398 µM [falling, partial curve] | –
COc1ccc(C(=O)Nc2ccc3c(c2)N(C2CCCC2)C(=O)c2ccccc2S3)cc1OC | 4.47 µM [rising, full curve, poor fit] | –
Cc1ccccc1CNC(=O)CCCn1c(=O)c2cccn2c2ccccc21 | – | 3.16 µM [rising, partial curve]
O=C(NCCc1ccccc1)C(=O)NCC(c1cccnc1)N1CCN(c2ccccc2)CC1 (stereo not drawn) | 6.31 µM [falling, full curve, poor fit] | –
Cc1ccc(-c2nc3sc4c(c3c(=O)n2N)CCCC4)cc1 | 11.2 µM [rising, single point] | –
C/C(=N\Nc1nc(N)cc(Cl)n1)c1cccc(N)c1 | – | 0.708 µM [rising, single point]
O=[N+]([O-])c1ccc(CN2CCOCCOCCN(Cc3ccc([N+](=O)[O-])cc3)CCOCC2)cc1 | 12.6 µM [rising, single point] | –
CSc1ccc(/C=C/c2ccc3cccc(O)c3n2)cc1 | 11.2 µM [rising, partial curve] | –
Cc1ccc(-n2nc3ccc(NC(=O)C(C)C)cc3n2)cc1 | 1.41 µM [falling, full curve, poor fit] | 5.62 µM [falling, partial curve]
COc1cccc(NC(=O)C2CC(=O)N(C)C(=Nc3cccc(F)c3)S2)c1 (stereo not drawn) | 12.6 µM [rising, single point] | 12.6 µM [rising, partial curve, poor fit]
Cc1ccc(OCC(=O)N/N=C2/SCC(=O)N2Cc2ccco2)cc1 | 31.6 µM [falling, partial curve, poor fit] | –
CC(C)c1ccc(S(=O)(=O)c2cn(Cc3ccc(F)cc3)c3cc4c(cc3c2=O)OCO4)cc1 | 0.0158 µM [rising, full curve, poor fit] | –
C=C(C)COc1ccc(-c2n[nH]c(C)c2Oc2ccccc2OC)c(O)c1 | 20 µM [rising, single point] | 25.1 µM [rising, single point]
Cc1ccc(C)c(N2CCN(C(=O)c3ccc(CS(=O)(=O)c4ccccc4C)o3)CC2)c1 | 3.55 µM [rising, single point] | –
CC(NC(=O)COC(=O)Cc1ccsc1)c1ccccc1 (stereo not drawn) | – | 0.00891 µM [rising, full curve, poor fit]
CSc1ncc(Cl)c(C(=O)Nc2ccc(S(=O)(=O)N3CCOCC3)cc2)n1 | 31.6 µM [rising, single point] | 15.8 µM [rising, single point]
COc1ccc(CC(=O)NCc2nnc(SCC(=O)Nc3ccc(OC)cc3)n2C)cc1 | 1.78 µM [falling, full curve] | 1.26 µM [falling, partial curve]

Reformatted: results already given

| SMILES | AC50 [1] | AC50 [2] |
| --- | --- | --- |
| O=[N+]([O-])c1ccc(CN2CCOCCOCCN(Cc3ccc([N+](=O)[O-])cc3)CCOCC2)cc1 | 12.6 µM [rising, single point] | – |
| CSc1ccc(/C=C/c2ccc3cccc(O)c3n2)cc1 | 11.2 µM [rising, partial curve] | – |
| Cc1ccc(-n2nc3ccc(NC(=O)C(C)C)cc3n2)cc1 | 1.41 µM [falling, full curve, poor fit] | 5.62 µM [falling, partial curve] |
| COc1cccc(NC(=O)C2CC(=O)N(C)C(=Nc3cccc(F)c3)S2)c1 (stereo not drawn) | 12.6 µM [rising, single point] | 12.6 µM [rising, partial curve, poor fit] |
| Cc1ccc(OCC(=O)N/N=C2/SCC(=O)N2Cc2ccco2)cc1 | 31.6 µM [falling, partial curve, poor fit] | – |
| CC(C)c1ccc(S(=O)(=O)c2cn(Cc3ccc(F)cc3)c3cc4c(cc3c2=O)OCO4)cc1 | 0.0158 µM [rising, full curve, poor fit] | – |
| C=C(C)COc1ccc(-c2n[nH]c(C)c2Oc2ccccc2OC)c(O)c1 | 20 µM [rising, single point] | 25.1 µM [rising, single point] |
